# Measured values: PMC9616849
# By UniProt entry, the sequences of proteins in these tests, tags left out.
# UniProt P70658: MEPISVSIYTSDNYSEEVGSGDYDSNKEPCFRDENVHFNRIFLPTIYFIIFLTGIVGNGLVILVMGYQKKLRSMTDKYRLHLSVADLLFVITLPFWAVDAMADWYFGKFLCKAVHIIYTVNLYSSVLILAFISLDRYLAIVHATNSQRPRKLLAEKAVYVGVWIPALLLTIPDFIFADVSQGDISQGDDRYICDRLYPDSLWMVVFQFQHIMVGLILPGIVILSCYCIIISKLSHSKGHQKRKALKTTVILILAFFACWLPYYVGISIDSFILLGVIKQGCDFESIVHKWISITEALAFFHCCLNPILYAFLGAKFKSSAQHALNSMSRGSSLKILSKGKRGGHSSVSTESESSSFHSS
# These are yes or no findings as the source states them, for the method shown. Binding seen in cells or lysates may run through a third protein. Some binding calls cover weakened binding; strength is not graded here.
# Molecular target: T1, Endogenous TBK1 (TANK-binding kinase 1) (mouse (endogenous in bEnd.3)) (UniProt Q9WUN2)
# T1 sequence: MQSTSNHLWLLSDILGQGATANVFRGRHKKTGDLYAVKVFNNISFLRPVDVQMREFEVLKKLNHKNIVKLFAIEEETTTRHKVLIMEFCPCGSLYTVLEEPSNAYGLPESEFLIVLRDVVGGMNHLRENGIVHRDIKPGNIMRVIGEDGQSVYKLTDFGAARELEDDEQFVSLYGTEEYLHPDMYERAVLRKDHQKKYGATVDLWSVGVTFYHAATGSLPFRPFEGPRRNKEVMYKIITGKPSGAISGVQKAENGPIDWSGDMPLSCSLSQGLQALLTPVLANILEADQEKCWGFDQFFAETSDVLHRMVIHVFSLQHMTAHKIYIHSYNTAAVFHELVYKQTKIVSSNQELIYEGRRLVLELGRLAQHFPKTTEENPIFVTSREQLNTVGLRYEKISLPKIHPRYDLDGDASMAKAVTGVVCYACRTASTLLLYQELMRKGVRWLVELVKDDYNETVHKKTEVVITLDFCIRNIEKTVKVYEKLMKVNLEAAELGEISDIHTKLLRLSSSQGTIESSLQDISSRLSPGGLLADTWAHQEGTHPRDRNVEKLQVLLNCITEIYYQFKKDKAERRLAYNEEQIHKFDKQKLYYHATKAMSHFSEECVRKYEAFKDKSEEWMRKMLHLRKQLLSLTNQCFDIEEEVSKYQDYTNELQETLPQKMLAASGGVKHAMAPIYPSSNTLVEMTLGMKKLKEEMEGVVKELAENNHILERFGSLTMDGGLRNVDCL
# Assay: co-IP; endogenous proteins in bEnd.3 cells; RIPA lysate, primary antibody overnight at 4 °C, protein A/G agarose 4 h at 4 °C, RIPA wash, western blot
substance,measurement,value
Endogenous CXCR4 (C-X-C chemokine receptor 4) (from UniProt P70658 1-359),binding,binds
